PubChem BioAssay AID1224826 – NIAID – 2016

- Test: 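Genes that change LPS-induced Tnf promoter activity in mouse macrophages when knocked down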 (primary screen)
- Cells: RAW264.7 G9 macrophages from mouse bearing reporters for p65 (GFP) and the Tnf promoter (mCherry)
- Reagents: siRNA pool against mouse genes, 100 nM
- Duration: 16 h of LPS stimulation, after 2 days of siRNA transfection
- Challenge: bacterial lipopolysaccharide (Salmonella minnesota R595), 10 ng/ml
- Detection: 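Nuclear mCherry signal of the Tnf promoter reporter measured by imaging after background removal, scaled to each plate median and turned into robust z-scores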
- Direction: Tnf reporter robust z-score: higher = stronger Tnf promoter reporter signal after LPS
- Call rule: 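Called active when robust z-score is at most -1.3, matching the median of the Tlr4 knock-down control, or over 3; control wells and wells with under 50 cells never active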
- Meaning of the calls: active = Tnf reporter clearly lowered or raised; inactive = no clear change in Tnf reporter
This is an unselected part of about 17,000 deposited reagents. In the full data, about 1,110 (6.6%) are marked active. 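Active means lowered or raised reporter signal; replicate intensities are raw and not normalised per plate.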 Further read-outs or replicates are left out here. No sequences are given here.

| Tnf reporter robust z-score | fewer than 50 cells in well | Call | Target gene |
| --- | --- | --- | --- |
| 1.44 | enough cells in well | inactive | Pitpnm1 (GeneID 18739) |
| – | fewer than 50 cells per well; well left out of calls | inactive | Tmem125 (GeneID 230678) |
| -0.23 | enough cells in well | inactive | Ccrl2 (GeneID 54199) |
| 0.07 | enough cells in well | inactive | Vmn1r237 (GeneID 171234) |
| – | fewer than 50 cells per well; well left out of calls | inactive | Prtg (GeneID 235472) |
| – | fewer than 50 cells per well; well left out of calls | inactive | Ccdc7b (GeneID 75453) |
| – | fewer than 50 cells per well; well left out of calls | inactive | Ints11 (GeneID 71957) |
| 0 | enough cells in well | inactive | Capn5 (GeneID 12337) |
| 0.18 | enough cells in well | inactive | Spats2l (GeneID 67198) |
| -0.96 | enough cells in well | inactive | 5730453H04RIK |
| – | fewer than 50 cells per well; well left out of calls | inactive | Sowahb (GeneID 78088) |
| -0.76 | enough cells in well | inactive | Hhip (GeneID 15245) |
| -0.13 | enough cells in well | inactive | Mlxip (GeneID 208104) |
| 0.31 | enough cells in well | inactive | Mmp28 (GeneID 118453) |
| -0.59 | enough cells in well | inactive | Sult1a1 (GeneID 20887) |
| – | fewer than 50 cells per well; well left out of calls | inactive | Smyd5 (GeneID 232187) |
| 2.37 | enough cells in well | inactive | Arhgap33 (GeneID 233071) |
| 3.96 | enough cells in well | active | Ctps2 (GeneID 55936) |
| -0.2 | enough cells in well | inactive | Fmnl3 (GeneID 22379) |
| 0.41 | enough cells in well | inactive | Ptprb (GeneID 19263) |
| -0.39 | enough cells in well | inactive | Atmin (GeneID 234776) |
| 0.57 | enough cells in well | inactive | Mtmr1 (GeneID 53332) |
| -0.51 | enough cells in well | inactive | Slc6a17 (GeneID 229706) |
| -1.16 | enough cells in well | inactive | Syt5 (GeneID 53420) |
| -0.59 | enough cells in well | inactive | Glis2 (GeneID 83396) |
| 0.44 | enough cells in well | inactive | Ttc27 (GeneID 74196) |
| -0.55 | enough cells in well | inactive | Fhl3 (GeneID 14201) |
| 0.52 | enough cells in well | inactive | Napepld (GeneID 242864) |
| 0.54 | enough cells in well | inactive | Rab40b (GeneID 217371) |
| -1.19 | enough cells in well | inactive | Gsg1 (GeneID 14840) |
| -0.17 | enough cells in well | inactive | Fgf20 (GeneID 80857) |
| -0.53 | enough cells in well | inactive | Zpbp2 (GeneID 69376) |
| – | fewer than 50 cells per well; well left out of calls | inactive | Vmn1r47 (GeneID 113846) |
| – | fewer than 50 cells per well; well left out of calls | inactive | Ppp1r14bl (GeneID 66755) |
| -0.27 | enough cells in well | inactive | Il11 (GeneID 16156) |
| 0.77 | enough cells in well | inactive | Cdc42ep3 (GeneID 260409) |
| – | fewer than 50 cells per well; well left out of calls | inactive | Glyr1 (GeneID 74022) |
| – | fewer than 50 cells per well; well left out of calls | inactive | Tnfrsf23 (GeneID 79201) |
| 0.38 | enough cells in well | inactive | Ndufaf7 (GeneID 73694) |
| – | fewer than 50 cells per well; well left out of calls | inactive | Izumo4 (GeneID 71564) |
| -0.64 | enough cells in well | inactive | Tmem130 (GeneID 243339) |
| – | fewer than 50 cells per well; well left out of calls | inactive | 4930483J18Rik (GeneID 67638) |
| -0.92 | enough cells in well | inactive | Pif1 (GeneID 208084) |
| 0.28 | enough cells in well | inactive | Or5ac20 (GeneID 258997) |
| 0.14 | enough cells in well | inactive | Rab33b (GeneID 19338) |
| 0.5 | enough cells in well | inactive | Tktl1 (GeneID 83553) |
| 1.87 | enough cells in well | inactive | Or11g26 (GeneID 258422) |
| -0.9 | enough cells in well | inactive | Dot1l (GeneID 208266) |
| 2.24 | enough cells in well | inactive | Mov10l1 (GeneID 83456) |
| -0.71 | enough cells in well | inactive | Bpifb9a (GeneID 71425) |
| -0.27 | enough cells in well | inactive | Ctps1 (GeneID 51797) |
| 0.99 | enough cells in well | inactive | Susd6 (GeneID 217684) |
| 1.04 | enough cells in well | inactive | Asb9 (GeneID 69299) |
| – | fewer than 50 cells per well; well left out of calls | inactive | Bbs5 (GeneID 72569) |
| 0.53 | enough cells in well | inactive | Cpt2 (GeneID 12896) |
| 0.03 | enough cells in well | inactive | Il17ra (GeneID 16172) |
| 1.7 | enough cells in well | inactive | Pam16 (GeneID 66449) |
| 0.12 | enough cells in well | inactive | Cib3 (GeneID 234421) |

Only “fewer than 50 cells in well”, for 6 of the entries above:
4930483J18Rik (GeneID 67638) = fewer than 50 cells per well; well left out of calls
Pif1 (GeneID 208084) = enough cells in well
Or5ac20 (GeneID 258997) = enough cells in well
Rab33b (GeneID 19338) = enough cells in well
Tktl1 (GeneID 83553) = enough cells in well
Or11g26 (GeneID 258422) = enough cells in well
